# Data source: PubChem BioAssay AID504764 (Drosophila RNAi Screening Center, 2011)
# Purpose: 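Genes whose knock-down alters Notch-dependent transcription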 (primary screen)
# Cell system: Drosophila Kc167 cells
# Reagent: long dsRNA against Drosophila genes
# Timing: about 5 days (4 days dsRNA, then 24 h after transfection)
# Treatment: transfection of constitutively active membrane-tethered Notch lacking the extracellular domain, read 24 h later
# Read-out: 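Light from a Notch-responsive E(spl)m3 luciferase reporter under active Notch, with control-promoter and no-Notch reporter wells to normalise; raw counts from paired wells a and b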
# Reading the numbers: induced reporter light, run 1, well a and induced reporter light, run 1, well b: higher = more light from the Notch target reporter with active Notch; control promoter light, run 1, well a and control promoter light, run 1, well b: higher = more light from the viral control promoter (cell number, transfection, viability); uninduced reporter light, run 1, well a: higher = more light from the Notch target reporter without active Notch
# Rule for the call: 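Hit if the duplicate-averaged log2 ratio of induced to control-promoter light gives a plate-wise z beyond ±2, or induced to uninduced beyond ±1.8; weak-control or discordant-duplicate wells dropped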
# Calls: active = modifier hit (raised or lowered Notch signal); inactive = not a hit
# In all, the deposit lists about 22,000 reagents; shown is an unselected part of those that have a named target and a result. Over the whole deposit, 403 (1.9%) got an active call. 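Unnormalised raw counts per well; ratio z-scores behind the hit calls and whether each hit raises or lowers signal are not deposited.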 Names joined by + are all predicted targets of the reagent. Not given: the amount of reagent.
Target gene,DRSC id,"induced reporter light, run 1, well a","induced reporter light, run 1, well b","control promoter light, run 1, well a","control promoter light, run 1, well b","uninduced reporter light, run 1, well a",Outcome
dpr2,DRSC02370,1.04e5,1.34e5,70300,75235,15400,inactive
dpr2,DRSC02371,1.40e5,1.59e5,59835,1.01e5,19415,inactive
btz,DRSC14566,1.70e5,1.93e5,2.49e5,2.69e5,16275,inactive
CG15638,DRSC01875,1.45e5,1.47e5,1.55e5,1.73e5,11742,inactive
CG12728,DRSC17883,2.25e5,1.85e5,2.85e5,2.31e5,16692,inactive
Sec63,DRSC11002,2.50e5,2.33e5,3.26e5,1.72e5,14105,inactive
Amt,DRSC16055,2.21e5,1.89e5,1.86e5,1.93e5,16110,inactive
CG5172,DRSC19936,1.08e5,1.17e5,1.97e5,1.78e5,11405,inactive
mtgo,DRSC02245,1.50e5,1.49e5,1.40e5,1.58e5,14115,inactive
mtgo,DRSC02246,10390,8085,8460,7790,3810,inactive
mtgo,DRSC02769,2.29e5,2.40e5,1.98e5,2.01e5,18130,inactive
mtgo,DRSC21392,,,,,,inactive
CG30395,DRSC03896,59615,81190,54300,55315,7135,inactive

Entries above whose gene name starts with C or c:
Target gene,DRSC id,"induced reporter light, run 1, well a","induced reporter light, run 1, well b","control promoter light, run 1, well a","control promoter light, run 1, well b","uninduced reporter light, run 1, well a",Outcome
CG15638,DRSC01875,1.45e5,1.47e5,1.55e5,1.73e5,11742,inactive
CG12728,DRSC17883,2.25e5,1.85e5,2.85e5,2.31e5,16692,inactive
CG5172,DRSC19936,1.08e5,1.17e5,1.97e5,1.78e5,11405,inactive
CG30395,DRSC03896,59615,81190,54300,55315,7135,inactive

The listing continues:
Target gene,DRSC id,"induced reporter light, run 1, well a","induced reporter light, run 1, well b","control promoter light, run 1, well a","control promoter light, run 1, well b","uninduced reporter light, run 1, well a",Outcome
fon,DRSC02507,1.62e5,1.65e5,1.46e5,1.76e5,15670,inactive
CG31104,DRSC14658,1.29e5,1.28e5,1.95e5,2.00e5,11770,inactive
Cpr65Az,DRSC09882,1.64e5,1.57e5,1.59e5,1.47e5,9145,inactive
Cpr65Az,DRSC22057,,,,,,active
CG11841,DRSC14399,2.22e5,2.26e5,3.43e5,3.16e5,15305,inactive
Atg1,DRSC09809,1.10e5,88625,64960,30700,7060,inactive
Atg1,DRSC09810,1.44e5,1.49e5,2.29e5,1.51e5,3810,active
Inx6,DRSC20579,1.53e5,1.22e5,1.48e5,1.88e5,13345,inactive
CG14851,DRSC14975,2.36e5,2.45e5,2.14e5,2.07e5,14860,inactive
Tdc1,DRSC04942,82000,65995,82450,98785,4300,inactive
CG30008,DRSC21576,,,,,,inactive
CG17195,DRSC15188,1.86e5,1.84e5,2.40e5,2.21e5,13650,inactive
Gr59a,DRSC21550,,,,,,inactive
Tsen34 + Trl,DRSC10014,1.77e5,1.27e5,2.56e5,1.74e5,13780,inactive
CG18682 (retired record),DRSC15373,1.50e5,1.33e5,1.76e5,1.95e5,14110,inactive
CG18682 (retired record),DRSC15374,1.33e5,1.25e5,1.99e5,1.67e5,11455,inactive
CG13046,DRSC09927,2.02e5,2.29e5,2.50e5,2.42e5,10060,inactive
Nap1,DRSC04626,2.00e5,1.36e5,1.22e5,1.76e5,14350,inactive
Tnpo,DRSC11309,62015,59325,43840,15920,3840,inactive
Dhc16F,DRSC20242,66850,44165,68980,67680,10705,inactive
CG12723,DRSC19499,1.52e5,1.43e5,1.99e5,1.89e5,9545,inactive
